The other results are listed elsewhere or left out.
The sequences below were run against OsWRKY34 (Oryza sativa, UniProt Q0JBA9 1-250) (assay: protein-binding microarray (RPBM); PBS, 2% BSA, 51.3 ng/ul salmon testes DNA, 50 uM zinc acetate, 200 nM TF, 25 C, 1 h; high values mean tight binding). Conditions: protein: recombinant; tags: N-terminal polyhistidine and DsRed monomer fusion (pET32a); label: CyDye5-dUTP incorporated in the synthesized complementary strand; 3' TTTTT single-stranded linker to array surface; dsDNA, one strand shown.
Procedure, shortened: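 The binding signal is fluorescence intensity per array feature (arbitrary units). Readings came from an Axon 4000B scanner after a washed, 2% BSA-blocked, double-stranded custom Agilent array had been incubated for 1 h at 25 °C with 200 nM protein and 50 µM zinc acetate. The protein was a Ni–NTA-purified transcription factor fused N-terminally to polyhistidine and DsRed, expressed in E. coli BL21-CodonPlus.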

Protein sequences, listed by entry. Tags and fused reporters are not part of them.
UniProt Q0JBA9, entry or part of it: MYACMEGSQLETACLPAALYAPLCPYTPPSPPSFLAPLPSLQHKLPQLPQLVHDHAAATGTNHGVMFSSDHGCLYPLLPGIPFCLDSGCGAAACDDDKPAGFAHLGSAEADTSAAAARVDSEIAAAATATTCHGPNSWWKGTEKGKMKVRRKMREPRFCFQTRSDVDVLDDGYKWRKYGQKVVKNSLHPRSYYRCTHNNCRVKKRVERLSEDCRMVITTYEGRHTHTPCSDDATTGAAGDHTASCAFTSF

Sequence	binding signal
TAAATTACTAAATTGTTTGACTTTTTTCTTAGTCAAACTTCGGAGTCACCTAGTGCAG	13600 fluorescence intensity (a.u.)
TGCCTAACAATTCTTTTTATTCGCGACGTCAATATACTACCGGAGTCACCTAGTGCAG	9730 fluorescence intensity (a.u.)
CATCCCCAAACTCCGCCGCCGCCGCCGTCACCGCCGCTCGCGGAGTCACCTAGTGCAG	8180 fluorescence intensity (a.u.)
ATCACCTTTTGCGGGCTTAGTTCTTTTTTAGACTAGCCATCGGAGTCACCTAGTGCAG	9940 fluorescence intensity (a.u.)
CAAGCACCACATGACTCACACACACCTTTCTCTTCTTCCACGGAGTCACCTAGTGCAG	15700 fluorescence intensity (a.u.)
AATGAAAAATGGGGATGGGATTGGGATTGAGAAATGAATGCGGAGTCACCTAGTGCAG	9280 fluorescence intensity (a.u.)
AATGGCAACTTCACAATTAAATTCTTGCATCTTTATGGGGCGGAGTCACCTAGTGCAG	8910 fluorescence intensity (a.u.)
TGTGGTTGGTATCTTTACTATTCTTTATTTATTTATTTATCGGAGTCACCTAGTGCAG	8660 fluorescence intensity (a.u.)
TGTGTCTGTCCTCCATCTTCTCTAAATAGTATTTAGCACACGGAGTCACCTAGTGCAG	9880 fluorescence intensity (a.u.)
CACGGCGCGACACTTTTGCCCTCACCTCCTACGCCTACACCGGAGTCACCTAGTGCAG	8020 fluorescence intensity (a.u.)
CGCGCTTCCCCGTTGACGCCGTCACCTCCCGTCTCCTTAACGGAGTCACCTAGTGCAG	8410 fluorescence intensity (a.u.)
CCTCCGTCCCACAATATAAGAGATTTTAAGTTTTTTCTTACGGAGTCACCTAGTGCAG	8900 fluorescence intensity (a.u.)
GGGGAGCTATTTAGTACTAGTTTTCAGCTTAATTACATTTCGGAGTCACCTAGTGCAG	10900 fluorescence intensity (a.u.)
TGTTTGCGTTTATCCCTTCTAGTGGGTTCCTTCGTAGGCACGGAGTCACCTAGTGCAG	8620 fluorescence intensity (a.u.)
ATTGGATTATTTGAGGTCGGGGAGGGGTACTTCAATGAATCGGAGTCACCTAGTGCAG	14100 fluorescence intensity (a.u.)
GCTACAGTAAGGTCAATATACTCTCCGTACTTTTCTTCTGCGGAGTCACCTAGTGCAG	8700 fluorescence intensity (a.u.)
GCCCACCATCTCATCTCTCGCACGCACGCACGCACCCGCCCGGAGTCACCTAGTGCAG	9070 fluorescence intensity (a.u.)
TGTCATTGGTGTATGCTTGACTATAGTCATCAGAGTTCAACGGAGTCACCTAGTGCAG	8330 fluorescence intensity (a.u.)
TTTGACATGTAGCTTTATGCAAGTTGGGTTTCGGATCTTGCGGAGTCACCTAGTGCAG	8470 fluorescence intensity (a.u.)
AGCGGTTGCTGGTGGTATGAGGAATTTGTTGTCGACACAACGGAGTCACCTAGTGCAG	8380 fluorescence intensity (a.u.)
ACATCCTTGTCGCGGCCATTATTCTCGTTGGAAGCTATCCCGGAGTCACCTAGTGCAG	8200 fluorescence intensity (a.u.)
CATCGCTATCACGCTCTGCACTTATCTCCAGGCCCAACTCCGGAGTCACCTAGTGCAG	8970 fluorescence intensity (a.u.)
GGAAGATCTATCTCTCGCTCGCTAGCTTGTCTGTCTTTTGCGGAGTCACCTAGTGCAG	11300 fluorescence intensity (a.u.)
ACCATTTACCAAACCTACCACAACTGGCACTACCAGATCGCGGAGTCACCTAGTGCAG	9610 fluorescence intensity (a.u.)
GGGTGCGTGGTACAGTTGACATTTGATACTTCTCTCGCCTCGGAGTCACCTAGTGCAG	9550 fluorescence intensity (a.u.)
TCAGTAACATCACCACACCGCTCTCCAAGTGTCAAAAAGACGGAGTCACCTAGTGCAG	9630 fluorescence intensity (a.u.)
GTGGCTTGGCGTGGTAGTGTGGGTATGAGTGGATTCACCTCGGAGTCACCTAGTGCAG	8380 fluorescence intensity (a.u.)

Sequence	binding signal
AGCCTGGAAGCCCATTCAGCGGCGGGGTTGGGGCGGCAGGCGGAGTCACCTAGTGCAG	10200 fluorescence intensity (a.u.)
CATACCCTGCATTCCTTAAATATCATTAGTGCATTTCATGCGGAGTCACCTAGTGCAG	9360 fluorescence intensity (a.u.)
GCCTCGCGTCGATCTCCTTGGCGCCACCACCGACCCCGCGCGGAGTCACCTAGTGCAG	9750 fluorescence intensity (a.u.)
CATATACACACACTCCTCGACTCCTTGGCCCTTTATATACCGGAGTCACCTAGTGCAG	10400 fluorescence intensity (a.u.)
TTTCTTTTCTTTTTTCTTTTTTTTTTTGCAATCTCCCTCGCGGAGTCACCTAGTGCAG	9680 fluorescence intensity (a.u.)
AAAAGCCCACCACCACCCAACCCGCCCAACGCCACGTCACCGGAGTCACCTAGTGCAG	9230 fluorescence intensity (a.u.)
CAACCGGTACTTTCTCCTTCTCGTCGATGATTACAGCTGTCGGAGTCACCTAGTGCAG	9320 fluorescence intensity (a.u.)
CCGAGTTTTTTTTTTCCATTCTTTCTGCTCGCATCAGTCTCGGAGTCACCTAGTGCAG	8160 fluorescence intensity (a.u.)
GGTGGTGGTGGTGGACTGGTGGTGATGGTGGCGTCGCTGGCGGAGTCACCTAGTGCAG	10600 fluorescence intensity (a.u.)
CCTACACACATAAACTTCTAACTTTTCTGTCACATCGTTCCGGAGTCACCTAGTGCAG	8470 fluorescence intensity (a.u.)
GTTACTCATATGTTTGGGCGTTGGCTTTCATGTGTTCCTACGGAGTCACCTAGTGCAG	8470 fluorescence intensity (a.u.)
CGGCCAATCTCCTGTGCACTTTTGACTTTCCATTTTGCCACGGAGTCACCTAGTGCAG	14900 fluorescence intensity (a.u.)
ATCCACGCATTAGGTTTTTTTGGATCGAGGGGAAGGGAGCCGGAGTCACCTAGTGCAG	9490 fluorescence intensity (a.u.)
TTCTTCATCATCTTCATCGTCTTCTTCTCGACTACTCAATCGGAGTCACCTAGTGCAG	11300 fluorescence intensity (a.u.)
GGCGGGCGGGCGGGCGATCGATTCGGCGAGCGCTTGCGCACGGAGTCACCTAGTGCAG	10700 fluorescence intensity (a.u.)
CACGCCTCGCCCATTGGGATTCGCCGCCCTCACCGCGAGCCGGAGTCACCTAGTGCAG	8330 fluorescence intensity (a.u.)
GTTCTTTTTTCTATTATTATTCAACTAGCCGTTGAGTTAACGGAGTCACCTAGTGCAG	8200 fluorescence intensity (a.u.)
TTACTATTTCGCATTTTTTTTTCTTATTTGCAAGTATACTCGGAGTCACCTAGTGCAG	10100 fluorescence intensity (a.u.)
TCCAGTTTTCTTGTGGAAGTTTTTTTCCTAAGGCATACATCGGAGTCACCTAGTGCAG	8120 fluorescence intensity (a.u.)
GTGTGTGATGGGTTAATCGATGTGCTATGTTATTGGTTTCCGGAGTCACCTAGTGCAG	8770 fluorescence intensity (a.u.)
CTTCCTTTCCAATAGCATTCCCTTTGCCTCGCCATCCTGCCGGAGTCACCTAGTGCAG	10100 fluorescence intensity (a.u.)
TTAACCAATCATAAACTCTCCACGTTCACTTCTACCTACTCGGAGTCACCTAGTGCAG	8300 fluorescence intensity (a.u.)
GTCAACCGCCTACAGTCCGCGCGAATCTGCAACCCAAATCCGGAGTCACCTAGTGCAG	9580 fluorescence intensity (a.u.)
AATAAATATATGTGCCCTGCTTCTCACTGTTCCATTATCACGGAGTCACCTAGTGCAG	9810 fluorescence intensity (a.u.)
GAACGCATATGAATTATATATATCGATTTTTGCATAACTACGGAGTCACCTAGTGCAG	8670 fluorescence intensity (a.u.)
TGAGCTCTGCCAATCGAAGTTTCTGCTGCCACCATTGTCACGGAGTCACCTAGTGCAG	10200 fluorescence intensity (a.u.)
GCTGGCGCCGGAGAGAGAGAGTGGGTTGGTTGTAATAAATCGGAGTCACCTAGTGCAG	9290 fluorescence intensity (a.u.)

Looked up above.
Under binding signal, TTACTATTTCGCATTTTTTTTTCTTATTTGCAAGTATACTCGGAGTCACCTAGTGCAG is listed with 10100 fluorescence intensity (a.u.)
Under binding signal, GGAAGATCTATCTCTCGCTCGCTAGCTTGTCTGTCTTTTGCGGAGTCACCTAGTGCAG is listed with 11300 fluorescence intensity (a.u.)
Under binding signal, GTCAACCGCCTACAGTCCGCGCGAATCTGCAACCCAAATCCGGAGTCACCTAGTGCAG is listed with 9580 fluorescence intensity (a.u.)
